Measured values taken from patent US20100015128A1, “GRP78 as a Predictor of Responsiveness to Therapeutic Agents” (UNIVERSITY OF SOUTHERN CALIFORNIA, priority 2006, published 2010).
These are yes or no findings as the source states them, for the method shown. In cells and extracts the contact can be indirect. Some entries that bind do so weakly or less than the wild type. Each block holds one molecule with its values, some of them ahead of it.

By UniProt entry, the sequences of proteins in these tests, tags left out. Residues count along the entry.
UniProt P11021, residues 19-654: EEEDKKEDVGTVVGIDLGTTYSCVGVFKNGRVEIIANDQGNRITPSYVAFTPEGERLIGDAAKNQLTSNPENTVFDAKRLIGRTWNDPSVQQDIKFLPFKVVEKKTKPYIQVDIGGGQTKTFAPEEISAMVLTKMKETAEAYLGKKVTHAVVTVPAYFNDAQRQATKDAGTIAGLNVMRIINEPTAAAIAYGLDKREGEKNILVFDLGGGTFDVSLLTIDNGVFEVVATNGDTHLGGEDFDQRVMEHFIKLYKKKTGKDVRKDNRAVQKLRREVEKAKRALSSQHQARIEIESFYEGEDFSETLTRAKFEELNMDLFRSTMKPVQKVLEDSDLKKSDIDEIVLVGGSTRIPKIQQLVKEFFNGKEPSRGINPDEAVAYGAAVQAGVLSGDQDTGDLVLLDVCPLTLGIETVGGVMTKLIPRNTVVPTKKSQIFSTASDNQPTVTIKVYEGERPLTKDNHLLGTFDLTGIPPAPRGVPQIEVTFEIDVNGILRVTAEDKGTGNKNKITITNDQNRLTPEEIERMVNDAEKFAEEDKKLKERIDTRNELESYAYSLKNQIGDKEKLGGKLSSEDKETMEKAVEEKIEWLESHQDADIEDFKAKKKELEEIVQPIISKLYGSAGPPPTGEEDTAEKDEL

Legend:
Flag-tagged BIK-b5TM [1] = target: Flag-tagged BIK-b5TM (UniProt Q13323); experiment: co-immunoprecipitation with anti-Flag from transfected 293T lysate, Western blot
Flag-tagged BIK-b5TM [2] = target: Flag-tagged BIK-b5TM (UniProt Q13323); experiment: co-immunoprecipitation with anti-Flag (figure legend)
endogenous Grp78 (human) [3] = target: endogenous Grp78 (human) (UniProt P11021); experiment: co-immunoprecipitation with anti-BIK from 293T lysate, Western blot
endogenous Grp78 (human) [4] = target: endogenous Grp78 (human) (UniProt P11021); experiment: co-immunoprecipitation and GST pull-down (figure legend)

binding (Flag-tagged BIK-b5TM [1]): binds
binding (Flag-tagged BIK-b5TM [2]): binds
Molecule: endogenous Grp78 (from UniProt P11021 19-654)

binding (endogenous Grp78 (human) [3]): binds
binding (endogenous Grp78 (human) [4]): binds
B1: endogenous BIK (other, human, UniProt Q13323 1-160, looked up)
chain: MSEVRPLSRDILMETLLYEQLLEPPTMEVLGMTDSEEDLDPMEDFDSLECMEGSDALALRLACIGDEMDVSLRAPRLAQLSEVAMHSLGLAFIYDQTEDIRDVLRSFMDGFTTLKENIMRFWRSPNPGSWVSCEQVLLALLLLLALLLPLLSGGLHLLLK
notes: Endogenous protein from total cell extract of the human cell line 293T, untreated or etoposide-treated; also called BIK protein
